# Assay results published in the supplement of paper PMC4807443.
# Counter-ions that a name gives are not always drawn. This is one part of the list. The numbers are fractions of the control, whatever unit the source prints. Most entries show no effect beyond the scatter of the controls.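 MIN6 is a mouse insulinoma beta-cell line that stably carries a lentiviral reporter in which the Pdx1 and Ins1 promoters each drive a nucleus-targeted fluorescent protein; cells were counted by automated imaging with a Hoechst nuclear stain. In the screen, a drug was a possible hit when its Ins1 promoter readout lay beyond two median absolute deviations from the DMSO controls while Pdx1 activity stayed near normal.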
# Test system: MIN6
# Assay: % Pdx1+ Ins1+ (double-positive, mature) cells relative to DMSO control (fold of DMSO control); higher = more mature Ins1 promoter-active cells
# Conditions: 8.5 µM; 48 h; glucose 5 mM
row,Structure (SMILES),% Pdx1+ Ins1+
1,CO[C@@]1(NC(=O)C2SC(=C(C(N)=O)C(=O)O)S2)C(=O)N2C(C(=O)O)=C(CSc3nnnn3C)CS[C@@H]21 (stereo not given in full) [Cefotetan],0.982
2,CCN(CC)CCOC(=O)C1(c2ccc([N+](=O)[O-])cc2)CCCC1 [Nitrocaramiphen hydrochloride],0.932
3,Clc1ccccc1CN1CCc2sccc2C1 [Ticlopidine hydrochloride],1.04
4,Nc1ccc(O)c(C(=O)O)c1 [Mesalamine],0.909
5,Nc1ccc(S(=O)(=O)Nc2ncccn2)cc1 [Sulfadiazine],0.95
6,C#C[C@]1(OC(C)=O)CC[C@H]2[C@@H]3CCC4=C[C@@H](OC(C)=O)CC[C@@H]4[C@H]3CC[C@@]21C [Ethynodiol diacetate],0.974
7,C#C[C@]1(O)CC[C@H]2[C@@H]3CCC4=CC(=O)CC[C@@H]4[C@H]3CC[C@@]21C [Norethindrone],1.06
8,CO[C@@]1(NC(=O)C(C(=O)O)c2ccc(O)cc2)C(=O)N2C(C(=O)O)=C(CSc3nnnn3C)CO[C@@H]21 (stereo not given in full) [Moxalactam disodium salt],0.981
9,CCCCCCCCCCCCCCCC[N+](C)(C)CCN(Cc1ccc(OC)cc1)c1ncccn1 [Thonzonium bromide],0.0576
10,CCN(CC)CCCC(C)Nc1c2ccc(Cl)cc2nc2ccc(OC)cc12 (stereo not given) [Quinacrine dihydrochloride dihydrate],0.465
11,CC(=O)N1CCN(c2ccc(OCC3COC(Cn4ccnc4)(c4ccc(Cl)cc4Cl)O3)cc2)CC1 (stereo not given) [Ketoconazole],1
12,C#C[C@]1(O)CC[C@H]2[C@@H]3CCc4cc(OC)ccc4[C@H]3CC[C@@]21C [Ethynylestradiol 3-methyl ether],0.982
13,CC(C)NCC(O)c1ccc(NS(C)(=O)=O)cc1 (stereo not given) [Sotalol hydrochloride],1.06
14,CCOC(=O)Nc1ccc2c(c1)N(C(=O)CCN1CCOCC1)c1ccccc1S2 [Moricizine hydrochloride],0.951
15,COc1cc2c(cc1OC)-c1cc3ccc(OC)c(OC)c3c[n+]1CC2 [Palmatine chloride],0.926
16,COC(=O)[C@H]1[C@H]2C[C@@H]3c4[nH]c5cc(OC)ccc5c4CCN3C[C@H]2C[C@@H](OC(=O)c2cc(OC)c(OC)c(OC)c2)[C@@H]1OC [Reserpine],0.965
17,CNC(=C[N+](=O)[O-])NCCSCc1ccc(CN(C)C)o1 [Ranitidine hydrochloride],1.01
18,CNCCC=C1c2ccccc2CCc2ccccc21 [Nortriptyline hydrochloride],0.811
19,C[C@H]1[C@H](NC(=O)/C(=N\OC(C)(C)C(=O)O)c2csc(N)n2)C(=O)N1S(=O)(=O)O [Aztreonam],1.03
20,Cc1ccc(/C(=C\CN2CCCC2)c2ccccn2)cc1 [Triprolidine hydrochloride],1.15
21,CC(C)(O/N=C(\C(=O)N[C@@H]1C(=O)N2C(C(=O)[O-])=C(C[n+]3ccccc3)CS[C@H]12)c1csc(N)n1)C(=O)O [Ceftazidime pentahydrate],0.899
22,"O=C1C=CC(=O)c2c1ccc1c2ccc2ccccc21 [Chrysene-1,4-quinone]",0.946
23,CN1CCN(C(c2ccccc2)c2ccc(Cl)cc2)CC1 (stereo not given) [(1-[(4-Chlorophenyl)phenyl-methyl]-4-methylpiperazine)],0.813

# Shown with bars between the fields: 3 of the compounds above
row | Structure (SMILES) | % Pdx1+ Ins1+
8 | CO[C@@]1(NC(=O)C(C(=O)O)c2ccc(O)cc2)C(=O)N2C(C(=O)O)=C(CSc3nnnn3C)CO[C@@H]21 (stereo not given in full) [Moxalactam disodium salt] | 0.981
11 | CC(=O)N1CCN(c2ccc(OCC3COC(Cn4ccnc4)(c4ccc(Cl)cc4Cl)O3)cc2)CC1 (stereo not given) [Ketoconazole] | 1
22 | O=C1C=CC(=O)c2c1ccc1c2ccc2ccccc21 [Chrysene-1,4-quinone] | 0.946

# More structures

row,Structure (SMILES),% Pdx1+ Ins1+
1,O=C(N/N=C/c1ccc([N+](=O)[O-])o1)c1ccc(O)cc1 [Nifuroxazide],0.316
2,CN(N=O)C(=O)N[C@@H](C=O)[C@@H](O)[C@H](O)[C@H](O)CO [Streptozotocin],0.861
3,CCC(=O)[C@@]1(C)[C@H](C)C[C@H]2[C@@H]3CCC4=CC(=O)C=C[C@]4(C)[C@H]3[C@@H](O)C[C@@]21C [Rimexolone],0.869
4,CCc1cc(C(N)=S)ccn1 [Ethionamide],0.96
5,CC[C@]12CCCN3CCc4c(n(c5ccccc45)C(=O)C1)[C@@H]32 [Eburnamonine (-)],0.838
6,C[C@]12C=CC(=O)C=C1CC[C@@H]1[C@@H]2C(=O)C[C@@]2(C)[C@H]1CC[C@]2(O)C(=O)CO [Prednisone],1.09
7,CNC(=C[N+](=O)[O-])NCCSCc1csc(CN(C)C)n1 [Nizatidine],0.971
8,CCn1cc(C(=O)O)c(=O)c2cc(F)c(N3CCNC(C)C3)c(F)c21 (stereo not given) [Lomefloxacin hydrochloride],1.07
9,COc1cc(C)nc(-n2nc(C)cc2OC)n1 [Epirizole],1.16
10,CS(=O)(=O)Nc1ccc([N+](=O)[O-])cc1Oc1ccccc1 [Nimesulide],1.04
11,CNNCc1ccc(C(=O)NC(C)C)cc1 [Procarbazine hydrochloride],0.904
12,C[N+]1(C)CCC(=C(c2ccccc2)c2ccccc2)CC1 [Diphemanil methylsulfate],1.01
13,NS(=O)(=O)c1cc2c(cc1Cl)NCNS2(=O)=O [Hydrochlorothiazide],1
14,CN(C)CCC=C1c2ccccc2C=Cc2ccccc21 [Cyclobenzaprine hydrochloride],0.903
15,C[n+]1cccc(C(=O)[O-])c1 [Trigonelline],0.848
16,C[C@@H]1C(=O)O[C@H]2C[C@@]34[C@H]5C[C@@H](C(C)(C)C)[C@]36[C@@H](OC(=O)[C@@H]6O)O[C@@]4(C(=O)O5)[C@]21O [Ginkgolide A],0.967
17,CC(=O)Oc1cc(C(C)C)c(OCCN(C)C)cc1C [Moxisylyte hydrochoride],0.996
18,CC(=O)OCC(=O)[C@@]1(O)CC[C@H]2[C@@H]3CCC4=CC(=O)C=C[C@]4(C)[C@@]3(F)[C@@H](O)C[C@@]21C [Isoflupredone acetate],1
19,CN(C)CCCOc1nn(Cc2ccccc2)c2ccccc12 [Benzydamine hydrochloride],1.09
20,Nc1ccc(S(=O)(=O)Nc2ccc(Cl)nn2)cc1 [Sulfachloropyridazine],0.831
21,COc1cc2nc(N3CCN(C(=O)C4CCCO4)CC3)nc(N)c2cc1OC (stereo not given) [Terazosin hydrochloride],0.804
22,C[C@@H]1C[C@H]2[C@@H]3C[C@H](F)C4=CC(=O)C=C[C@]4(C)[C@@]3(F)[C@@H](O)C[C@]2(C)[C@@]1(O)C(=O)CO [Flumethasone],1.01
